Results published in the supplement of paper PMC7824004.
Some of the results follow. The data scatter; read single values as rough.

test system: Candida albicans SN425; assay: biofilm OD600 B-score; higher = more biofilm (less inhibition); settings: 10 µM; assay detail: High-throughput adherence inhibition optical density biofilm assay with C. albicans SN425 in RPMI-1640/MOPS pH 7.0, 384-well plates. …
Method: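 High-throughput adherence inhibition optical density biofilm assay with C. albicans SN425 in RPMI-1640/MOPS pH 7.0, 384-well plates. Compound (10 µM) was present only during the 90 min adherence step, then washed out, and the biofilm grew 24 h without compound. Biofilm was read as OD600 after removing the media. Scores are the difference from the mean in standard deviations and the plate B-score.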

| Structure (SMILES) | biofilm OD600 B-score |
| --- | --- |
| O=C(Nc1ccc2snnc2c1)N1CCSCC1 | -0.909 |
| COc1ccccc1N1CCN(CCC(=O)NN)CC1 | -0.0843 |
| COc1ccc(-n2nnnc2SCC(=O)NC(C)(C)C)cc1 | -1.58 |
| CN(C)CCCOc1cccc(Cl)c1 | 0.0207 |
| C=CCSc1nc(O)c(Cc2ccccc2)c(=O)[nH]1 | 0.729 |
| COc1ccc(-c2nnn(Cc3ccccc3F)n2)cc1 | 0.297 |
| CCC(=O)Nc1cc(C(=O)O)ccc1C | 0.0158 |
| Cc1ccccc1C(=O)N1CCCCC1CO (stereo not given) | -4.77 |
| Cc1cccnc1NCC(O)COc1ccccc1 (stereo not given) | -0.708 |
| CCCN1CCC(N2CCN(c3ccccc3OC)CC2)CC1 | -1.74 |
| COc1nc(N=C(N)N)nc2ccc(C)cc12 | 0.158 |
| O=C(O)c1cccc(NS(=O)(=O)c2ccccc2)c1 | -1.02 |
| O=C(CNC(=O)c1ccccc1F)NC1CC1 | -1.72 |
| COc1cc(OC)c(NC(=O)c2cccnc2)cc1Cl | 0.0977 |
| COc1ccccc1N1CCN(C(=O)Nc2cccc(F)c2)CC1 | 2.21 |
| COc1ccccc1-n1c(SCC(=O)c2ccccc2)nc(O)cc1=O | -0.802 |
| CCCc1cc2c(cc1N)OCO2 | -1.6 |
| Nc1ccc(Cl)c(NC(=O)CC(=O)c2ccccc2)c1 | 1.71 |
| O=C(CN1CCOCC1)N(c1ccccc1)c1ccccc1 | 0.427 |
| OCC1CCCCCN1 (stereo not given) | 2.32 |
| COc1ccc(C(N)=O)cc1NC(C)=O | -1.53 |
| COc1ccc(NS(C)(=O)=O)cc1OC | 1.17 |
| CC(=O)Nc1cc(C(N)=O)cc(C(N)=O)c1 | -1.6 |
| O=S(=O)(c1ccc(F)cc1)N1CCN(c2ccccn2)CC1 | -1.34 |
| C=C(C)CN(CC)Cc1cccc(O)c1 | 3.17 |

Single values from the entries so far:
For biofilm OD600 B-score, `CCCc1cc2c(cc1N)OCO2` shows -1.6
For biofilm OD600 B-score, `CN(C)CCCOc1cccc(Cl)c1` shows 0.0207
